This continues a long series; more values of the same kind are listed elsewhere.
Tested on: PRISM DNA-barcoded human tumour cell lines
Assay: PRISM pooled cell viability assay;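 also: 8 threefold dilutions from 10 µM with 5 days of exposure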
Assay type: cell-based
Set-up: Area under the curve (AUC): scale not given here
Experimental: Cells were then lysed in TCL mRNA lysis buffer, and then PCR with reverse transcription was performed. Detection of the barcodes and univariate and multivariate analysis was then performed as previously described. Data analysis is described in the Supplementary Methods. Up-to-date code for our analysis is at the github link: https://github.com/cmap/dockerized_mts.
For every gene with non-silent mutations in at least four cell-lines, we compared the AUC values between cells with and without those mutations using a t-test. This analysis was carried out for: (i) the full dataset; (ii) excluding cell lines with non-silent KRAS mutations; and (iii) excluding cell lines that have either KRAS or NRAS non-silent mutations.

CCn1c(-c2cc(N3CCN(C4CC4)CC3)cnc2[C@H](C)OC)c2c3cc(ccc31)-c1csc(n1)C[C@H](NC(=O)[C@H]1[C@@H]3COC[C@@H]31)C(=O)N1CCC[C@H](N1)C(=O)OCC(C)(C)C2 [RMC-7977]
Area under the curve (AUC) (CAL51_BREAST): 0.7618 | PRISM AUC (CAL51_BREAST, KRAS WT): 0.8348 | Area under the curve (AUC) (CAL54_KIDNEY): 1 | PRISM AUC (CAL54_KIDNEY, KRAS WT): 0.923 | Area under the curve (AUC) (CAL62_THYROID): 0.8444 | Area under the curve (AUC) (CAL72_BONE): 0.8606 | Area under the curve (AUC) (CAL78_BONE): 0.9047 | Area under the curve (AUC) (CAL120_BREAST): 0.7959 | PRISM AUC (CAL120_BREAST, KRAS WT): 0.7786 | Area under the curve (AUC) (CAL148_BREAST): 1 | PRISM AUC (CAL148_BREAST, KRAS WT): 0.8804 | Area under the curve (AUC) (CALU1_LUNG): 0.5912 | Area under the curve (AUC) (CALU6_LUNG): 0.6889 | PRISM AUC (CALU6_LUNG, KRAS MUT): 0.3828 | Area under the curve (AUC) (CAMA1_BREAST): 1 | PRISM AUC (CAOV3_OVARY, KRAS WT): 0.5307 | PRISM AUC (CAS1_CENTRAL_NERVOUS_SYSTEM, KRAS WT): 0.789 | PRISM AUC (CCFSTTG1_CENTRAL_NERVOUS_SYSTEM, KRAS WT): 0.7928 | PRISM AUC (CCK81_LARGE_INTESTINE, KRAS WT): 0.7557 | PRISM AUC (CH157MN_CENTRAL_NERVOUS_SYSTEM, KRAS WT): 0.4312 | PRISM AUC (CHAGOK1_LUNG, KRAS WT): 0.3799 | PRISM AUC (CI1_HAEMATOPOIETIC_AND_LYMPHOID_TISSUE, KRAS WT): 0.9545 | PRISM AUC (CJM_SKIN, KRAS WT): 0.3707 | PRISM AUC (CL11_LARGE_INTESTINE, KRAS MUT): 0.3351 | PRISM AUC (CL34_LARGE_INTESTINE, KRAS WT): 1 | PRISM AUC (CMLT1_HAEMATOPOIETIC_AND_LYMPHOID_TISSUE, KRAS WT): 0.3476 | PRISM AUC (COLO320_LARGE_INTESTINE, KRAS WT): 0.7893 | PRISM AUC (COLO679_SKIN, KRAS WT): 0.8322 | PRISM AUC (COLO680N_OESOPHAGUS, KRAS WT): 0.5372 | PRISM AUC (COLO741_SKIN, KRAS WT): 1 | PRISM AUC (COLO783_SKIN, KRAS WT): 0.781 | PRISM AUC (COLO792_SKIN, KRAS WT): 0.4587 | PRISM AUC (COLO800_SKIN, KRAS WT): 0.7375 | PRISM AUC (CORL88_LUNG, KRAS WT): 0.4616 | PRISM AUC (CORL279_LUNG, KRAS WT): 0.8633 | PRISM AUC (COV318_OVARY, KRAS WT): 0.9245 | PRISM AUC (COV362_OVARY, KRAS WT): 0.6165 | PRISM AUC (COV434_OVARY, KRAS WT): 0.9271 | PRISM AUC (COV644_OVARY, KRAS WT): 0.6171 | PRISM AUC (CW2_LARGE_INTESTINE, KRAS MUT): 0.7877 | PRISM AUC (DAOY_CENTRAL_NERVOUS_SYSTEM, KRAS WT): 0.5911 | PRISM AUC (DBTRG05MG_CENTRAL_NERVOUS_SYSTEM, KRAS WT): 0.9778 | PRISM AUC (DEL_HAEMATOPOIETIC_AND_LYMPHOID_TISSUE, KRAS WT): 0.7498 | PRISM AUC (DETROIT562_UPPER_AERODIGESTIVE_TRACT, KRAS WT): 0.2977 | PRISM AUC (DKMG_CENTRAL_NERVOUS_SYSTEM, KRAS WT): 0.9016 | PRISM AUC (DMS53_LUNG, KRAS WT): 0.8431 | PRISM AUC (DMS273_LUNG, KRAS WT): 0.8256 | PRISM AUC (DOHH2_HAEMATOPOIETIC_AND_LYMPHOID_TISSUE, KRAS WT): 0.6063 | PRISM AUC (DU145_PROSTATE, KRAS WT): 0.668 | PRISM AUC (EB1_HAEMATOPOIETIC_AND_LYMPHOID_TISSUE, KRAS WT): 0.8935 | PRISM AUC (EBC1_LUNG, KRAS WT): 0.2644 | PRISM AUC (ECGI10_OESOPHAGUS, KRAS WT): 0.3668 | PRISM AUC (EFE184_ENDOMETRIUM, KRAS WT): 0.6221 | PRISM AUC (EFM19_BREAST, KRAS WT): 1 | PRISM AUC (EFM192A_BREAST, KRAS WT): 0.9097 | PRISM AUC (EFO21_OVARY, KRAS WT): 0.6828 | PRISM AUC (EFO27_OVARY, KRAS WT): 0.6261 | PRISM AUC (EKVX_LUNG, KRAS WT): 0.4183 | PRISM AUC (EOL1_HAEMATOPOIETIC_AND_LYMPHOID_TISSUE, KRAS WT): 0.2206 | PRISM AUC (ES2_OVARY, KRAS WT): 0.8337 | PRISM AUC (ESS1_ENDOMETRIUM, KRAS WT): 0.6047 | PRISM AUC (EW8_BONE, KRAS WT): 0.8525 | PRISM AUC (EWS502_BONE, KRAS WT): 0.6179 | PRISM AUC (FADU_UPPER_AERODIGESTIVE_TRACT, KRAS WT): 0.4703 | PRISM AUC (FTC133_THYROID, KRAS WT): 0.5606 | PRISM AUC (FTC238_THYROID, KRAS WT): 0.9927 | PRISM AUC (G292CLONEA141B1_BONE, KRAS WT): 0.598 | PRISM AUC (G361_SKIN, KRAS WT): 0.8708 | PRISM AUC (G401_SOFT_TISSUE, KRAS WT): 0.7823 | PRISM AUC (G402_SOFT_TISSUE, KRAS WT): 0.7763 | PRISM AUC (GAMG_CENTRAL_NERVOUS_SYSTEM, KRAS WT): 0.6238 | Area under the curve (AUC) (GCIY_STOMACH): 0.7784 | PRISM AUC (GCIY_STOMACH, KRAS WT): 0.4885 | Area under the curve (AUC) (GCT27_TESTIS): 0.6893 | Area under the curve (AUC) (GCT_SOFT_TISSUE): 0.8913 | PRISM AUC (GCT_SOFT_TISSUE, KRAS WT): 0.9917 | Area under the curve (AUC) (GI1_CENTRAL_NERVOUS_SYSTEM): 0.71 | PRISM AUC (GI1_CENTRAL_NERVOUS_SYSTEM, KRAS WT): 0.5906 | Area under the curve (AUC) (GIMEN_AUTONOMIC_GANGLIA): 0.7996 | Area under the curve (AUC) (GOS3_CENTRAL_NERVOUS_SYSTEM): 0.7797 | PRISM AUC (GOS3_CENTRAL_NERVOUS_SYSTEM, KRAS WT): 0.6594 | Area under the curve (AUC) (GP2D_LARGE_INTESTINE): 0.6618 | Area under the curve (AUC) (GP5D_LARGE_INTESTINE): 0.6949 | Area under the curve (AUC) (GRANTA519_HAEMATOPOIETIC_AND_LYMPHOID_TISSUE): 0.8485 | PRISM AUC (GRANTA519_HAEMATOPOIETIC_AND_LYMPHOID_TISSUE, KRAS WT): 0.7936 | Area under the curve (AUC) (GSS_STOMACH): 0.6723 | PRISM AUC (GSS_STOMACH, KRAS WT): 0.6501 | Area under the curve (AUC) (GSU_STOMACH): 0.3277 | Area under the curve (AUC) (H4_CENTRAL_NERVOUS_SYSTEM): 0.8134 | PRISM AUC (H4_CENTRAL_NERVOUS_SYSTEM, KRAS WT): 0.7582 | Area under the curve (AUC) (H103_UPPER_AERODIGESTIVE_TRACT): 0.579 | Area under the curve (AUC) (H157_UPPER_AERODIGESTIVE_TRACT): 0.5372 | Area under the curve (AUC) (H357_UPPER_AERODIGESTIVE_TRACT): 0.4268 | Area under the curve (AUC) (H376_UPPER_AERODIGESTIVE_TRACT): 0.5899 | Area under the curve (AUC) (H413_UPPER_AERODIGESTIVE_TRACT): 0.5897 | Area under the curve (AUC) (HA1E_KIDNEY): 0.832 | Area under the curve (AUC) (HAC2_OVARY): 0.6861 | Area under the curve (AUC) (HARA_LUNG): 0.5733 | PRISM AUC (HARA_LUNG, KRAS WT): 0.5091 | Area under the curve (AUC) (HCA1_CERVIX): 0.7682 | Area under the curve (AUC) (HCC15_LUNG): 0.7361 | PRISM AUC (HCC15_LUNG, KRAS WT): 0.5149 | Area under the curve (AUC) (HCC33_LUNG): 1 | Area under the curve (AUC) (HCC38_BREAST): 0.8353 | PRISM AUC (HCC38_BREAST, KRAS WT): 0.8722 | Area under the curve (AUC) (HCC44_LUNG): 0.5509 | Area under the curve (AUC) (HCC56_LARGE_INTESTINE): 0.3355 | Area under the curve (AUC) (HCC78_LUNG): 0.6092 | PRISM AUC (HCC78_LUNG, KRAS WT): 0.501 | Area under the curve (AUC) (HCC95_LUNG): 0.5848 | PRISM AUC (HCC95_LUNG, KRAS WT): 0.339 | Area under the curve (AUC) (HCC515_LUNG): 0.9075 | Area under the curve (AUC) (HCC827_LUNG): 0.6413 | PRISM AUC (HCC827_LUNG, KRAS WT): 0.517 | Area under the curve (AUC) (HCC1143_BREAST): 0.6464 | PRISM AUC (HCC1143_BREAST, KRAS WT): 0.393 | Area under the curve (AUC) (HCC1195_LUNG): 0.5883 | PRISM AUC (HCC1195_LUNG, KRAS WT): 0.6546

From article PMC11111408, “Concurrent inhibition of oncogenic and wild-type RAS-GTP for cancer therapy” (Nature, 2024)
